Source: article PMC5570908
These are yes or no findings as the source states them, for the method shown. Binding seen in cells or lysates may run through a third protein. Binding can be weak; no strength is given.

Chains of the proteins cited; added tags and fusions are not shown. Lines headed by an entry give the natural chain unless they say otherwise; changes in a name come on top.
UniProt Q9HCE7: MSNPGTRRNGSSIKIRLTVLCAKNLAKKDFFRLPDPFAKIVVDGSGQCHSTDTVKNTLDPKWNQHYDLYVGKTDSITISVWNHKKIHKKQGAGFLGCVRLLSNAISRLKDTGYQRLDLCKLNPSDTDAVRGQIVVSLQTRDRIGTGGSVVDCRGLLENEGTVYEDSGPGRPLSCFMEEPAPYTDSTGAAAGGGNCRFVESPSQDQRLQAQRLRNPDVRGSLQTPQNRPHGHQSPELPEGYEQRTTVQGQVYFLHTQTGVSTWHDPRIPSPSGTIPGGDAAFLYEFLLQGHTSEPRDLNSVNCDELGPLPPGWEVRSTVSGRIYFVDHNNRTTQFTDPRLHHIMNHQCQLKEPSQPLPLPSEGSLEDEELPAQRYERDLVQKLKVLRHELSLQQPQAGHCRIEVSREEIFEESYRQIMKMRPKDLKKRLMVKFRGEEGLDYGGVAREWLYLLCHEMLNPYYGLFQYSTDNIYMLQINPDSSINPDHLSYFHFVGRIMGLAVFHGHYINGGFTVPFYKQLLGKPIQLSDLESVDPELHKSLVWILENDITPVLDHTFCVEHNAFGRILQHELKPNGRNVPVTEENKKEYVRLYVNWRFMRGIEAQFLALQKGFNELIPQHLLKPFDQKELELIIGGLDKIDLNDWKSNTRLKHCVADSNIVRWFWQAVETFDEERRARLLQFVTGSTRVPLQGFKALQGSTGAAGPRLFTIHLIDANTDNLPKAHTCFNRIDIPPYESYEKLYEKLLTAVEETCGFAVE
UniProt P84022: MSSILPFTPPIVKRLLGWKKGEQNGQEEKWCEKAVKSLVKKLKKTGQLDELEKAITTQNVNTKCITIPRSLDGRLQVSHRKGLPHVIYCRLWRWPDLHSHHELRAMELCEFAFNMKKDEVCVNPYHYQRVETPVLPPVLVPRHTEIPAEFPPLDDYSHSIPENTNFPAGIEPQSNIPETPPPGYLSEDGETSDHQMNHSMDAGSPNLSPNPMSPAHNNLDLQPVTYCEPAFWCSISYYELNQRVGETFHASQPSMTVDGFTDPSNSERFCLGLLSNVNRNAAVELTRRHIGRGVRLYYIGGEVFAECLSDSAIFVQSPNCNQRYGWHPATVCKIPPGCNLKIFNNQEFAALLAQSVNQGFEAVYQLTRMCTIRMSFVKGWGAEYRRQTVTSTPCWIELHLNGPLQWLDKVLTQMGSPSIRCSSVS

Target: Flag-Smurf1 (UniProt Q9HCE7)
Test: co-IP; MDA-MB-231 cells transfected with Flag-Smurf1 and Myc-Smad3; MG132 (20 µM) for 8 h before harvest; HEPES lysis buffer (20 mM HEPES pH 7.2, 50 mM NaCl, 0.5% Triton X-100, 1 mM NaF, 1 mM dithiothreitol); antibody 3 h at 4 °C, protein A/G-plus agarose; western blot (anti-Myc-HRP to detect Smad3)

binding: binds
Substance: Myc-Smad3 (from UniProt P84022 1-425)
